Taken from: PubChem BioAssay AID1508597 (Cure First, 2020)

- Assay: 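Survival screen with siRNA in ovarian cancer cells derived from patients, with or without rucaparib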 (primary screen)
- Cell system: human ovarian carcinoma lines grown from tumours: OCI-P5x (papillary serous) and OCI-C5x (clear cell)
- Reagent: siRNA pool against human genes, 1.25 pmol siRNA per well
- Duration: 72 h or 96 h, depending on the cell culture
- Treatment: rucaparib 20 µM (about IC30) or vehicle, present until read-out
- Read-out: 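ATP luminescence measured at 72 or 96 h according to the culture, then normalised and expressed as percent viability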
- Scale: viability, normalised: higher = more viable cells remaining
- Rule for the call: 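Active when normalised viability falls below 80 percent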
- Meaning of the calls: active = viability under 80%; inactive = viability 80% or more
In all, the deposit lists about 2,100 reagents; this is a random part of them. 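Calls flag viability under 80% in either arm, not effects specific to rucaparib; the reference for percent is not stated.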 Entries without a mark were called inactive. Not given: the 100% reference.

For TDRD1 (GeneID 56165), rucaparib or vehicle Rucaparib, cell line OCI-C5x (clear cell), technical replicate 1, the values are viability, normalised (%) = 64 (active).
TDRD1 (GeneID 56165), rucaparib or vehicle Rucaparib, cell line OCI-C5x (clear cell), technical replicate 2 gave viability, normalised (%) = 68.1 (active).
TDRD1 (GeneID 56165), rucaparib or vehicle Rucaparib, cell line OCI-C5x (clear cell), technical replicate 3 showed viability, normalised (%) = 44.6 (active).
TDRD1 (GeneID 56165), rucaparib or vehicle Rucaparib, cell line OCI-P5x (serous), technical replicate 1 scored viability, normalised (%) = 47.5 (active).
With TDRD1 (GeneID 56165), rucaparib or vehicle Rucaparib, cell line OCI-P5x (serous), technical replicate 2 the deposit lists viability, normalised (%) = 77.9 (active).
For TDRD1 (GeneID 56165), rucaparib or vehicle Rucaparib, cell line OCI-P5x (serous), technical replicate 3 the deposit lists viability, normalised (%) = 62.4 (active).
TDRD1 (GeneID 56165), rucaparib or vehicle Vehicle, cell line OCI-C5x (clear cell), technical replicate 1 showed viability, normalised (%) = 50.9 (active).
TDRD1 (GeneID 56165), rucaparib or vehicle Vehicle, cell line OCI-C5x (clear cell), technical replicate 2 showed viability, normalised (%) = 52 (active).
For TDRD1 (GeneID 56165), rucaparib or vehicle Vehicle, cell line OCI-C5x (clear cell), technical replicate 3, the values are viability, normalised (%) = 39.4 (active).
TDRD1 (GeneID 56165), rucaparib or vehicle Vehicle, cell line OCI-P5x (serous), technical replicate 1 scored viability, normalised (%) = 73.2 (active).
For TDRD1 (GeneID 56165), rucaparib or vehicle Vehicle, cell line OCI-P5x (serous), technical replicate 2 the deposit lists viability, normalised (%) = 83.1.
For TDRD1 (GeneID 56165), rucaparib or vehicle Vehicle, cell line OCI-P5x (serous), technical replicate 3, the entry reads viability, normalised (%) = 75.8 (active).

2 successive entries already listed:
TDRD1 (GeneID 56165), rucaparib or vehicle Rucaparib, cell line OCI-C5x (clear cell), technical replicate 1 — viability, normalised (%): 64 (active)
TDRD1 (GeneID 56165), rucaparib or vehicle Rucaparib, cell line OCI-C5x (clear cell), technical replicate 2 — viability, normalised (%): 68.1 (active)

Additional results:
ADGRA3 (GeneID 166647), rucaparib or vehicle Rucaparib, cell line OCI-C5x (clear cell), technical replicate 1 showed viability, normalised (%) = 52.3 (active).
ADGRA3 (GeneID 166647), rucaparib or vehicle Rucaparib, cell line OCI-C5x (clear cell), technical replicate 2 showed viability, normalised (%) = 53.6 (active).
With ADGRA3 (GeneID 166647), rucaparib or vehicle Rucaparib, cell line OCI-C5x (clear cell), technical replicate 3 the deposit lists viability, normalised (%) = 43.2 (active).
For ADGRA3 (GeneID 166647), rucaparib or vehicle Rucaparib, cell line OCI-P5x (serous), technical replicate 1, the entry reads viability, normalised (%) = 54.4 (active).
ADGRA3 (GeneID 166647), rucaparib or vehicle Rucaparib, cell line OCI-P5x (serous), technical replicate 2 scored viability, normalised (%) = 64.3 (active).
ADGRA3 (GeneID 166647), rucaparib or vehicle Rucaparib, cell line OCI-P5x (serous), technical replicate 3 gave viability, normalised (%) = 69.8 (active).
ADGRA3 (GeneID 166647), rucaparib or vehicle Vehicle, cell line OCI-C5x (clear cell), technical replicate 1 scored viability, normalised (%) = 50.9 (active).
ADGRA3 (GeneID 166647), rucaparib or vehicle Vehicle, cell line OCI-C5x (clear cell), technical replicate 2 showed viability, normalised (%) = 51.2 (active).
For ADGRA3 (GeneID 166647), rucaparib or vehicle Vehicle, cell line OCI-C5x (clear cell), technical replicate 3, the values are viability, normalised (%) = 48.8 (active).
For ADGRA3 (GeneID 166647), rucaparib or vehicle Vehicle, cell line OCI-P5x (serous), technical replicate 1 the deposit lists viability, normalised (%) = 89.6.
For ADGRA3 (GeneID 166647), rucaparib or vehicle Vehicle, cell line OCI-P5x (serous), technical replicate 2, the values are viability, normalised (%) = 74.6 (active).
For ADGRA3 (GeneID 166647), rucaparib or vehicle Vehicle, cell line OCI-P5x (serous), technical replicate 3, the entry reads viability, normalised (%) = 69.7 (active).
